Percent effect of library compounds

Sequences of proteins named here, by UniProt entry; tags and fusion partners are left off. Residues count along the entry.
UniProt Q4DA54, 1-478: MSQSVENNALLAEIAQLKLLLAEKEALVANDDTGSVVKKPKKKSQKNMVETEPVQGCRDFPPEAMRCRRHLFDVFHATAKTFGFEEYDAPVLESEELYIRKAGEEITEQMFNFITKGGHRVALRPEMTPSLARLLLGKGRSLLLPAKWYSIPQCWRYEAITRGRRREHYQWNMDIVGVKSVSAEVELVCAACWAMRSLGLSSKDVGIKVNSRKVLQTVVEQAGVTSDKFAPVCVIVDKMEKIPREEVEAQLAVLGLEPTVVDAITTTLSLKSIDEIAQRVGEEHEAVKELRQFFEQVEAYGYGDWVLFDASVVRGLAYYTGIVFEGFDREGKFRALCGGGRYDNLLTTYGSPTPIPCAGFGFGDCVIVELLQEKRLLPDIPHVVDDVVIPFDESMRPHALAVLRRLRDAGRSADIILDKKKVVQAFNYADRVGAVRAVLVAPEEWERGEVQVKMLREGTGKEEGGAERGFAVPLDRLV
UniProt P9WFT3, whole entry: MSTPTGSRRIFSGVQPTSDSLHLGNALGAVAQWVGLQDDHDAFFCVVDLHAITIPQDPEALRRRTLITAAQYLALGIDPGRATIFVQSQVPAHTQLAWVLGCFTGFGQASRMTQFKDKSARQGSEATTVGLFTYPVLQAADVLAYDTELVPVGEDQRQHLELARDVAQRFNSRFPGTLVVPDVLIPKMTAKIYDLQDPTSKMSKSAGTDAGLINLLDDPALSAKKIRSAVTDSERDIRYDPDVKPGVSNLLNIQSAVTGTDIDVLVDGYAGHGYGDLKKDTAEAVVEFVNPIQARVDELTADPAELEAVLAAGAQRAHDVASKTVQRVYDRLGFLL
UniProt I6X8D2, whole entry: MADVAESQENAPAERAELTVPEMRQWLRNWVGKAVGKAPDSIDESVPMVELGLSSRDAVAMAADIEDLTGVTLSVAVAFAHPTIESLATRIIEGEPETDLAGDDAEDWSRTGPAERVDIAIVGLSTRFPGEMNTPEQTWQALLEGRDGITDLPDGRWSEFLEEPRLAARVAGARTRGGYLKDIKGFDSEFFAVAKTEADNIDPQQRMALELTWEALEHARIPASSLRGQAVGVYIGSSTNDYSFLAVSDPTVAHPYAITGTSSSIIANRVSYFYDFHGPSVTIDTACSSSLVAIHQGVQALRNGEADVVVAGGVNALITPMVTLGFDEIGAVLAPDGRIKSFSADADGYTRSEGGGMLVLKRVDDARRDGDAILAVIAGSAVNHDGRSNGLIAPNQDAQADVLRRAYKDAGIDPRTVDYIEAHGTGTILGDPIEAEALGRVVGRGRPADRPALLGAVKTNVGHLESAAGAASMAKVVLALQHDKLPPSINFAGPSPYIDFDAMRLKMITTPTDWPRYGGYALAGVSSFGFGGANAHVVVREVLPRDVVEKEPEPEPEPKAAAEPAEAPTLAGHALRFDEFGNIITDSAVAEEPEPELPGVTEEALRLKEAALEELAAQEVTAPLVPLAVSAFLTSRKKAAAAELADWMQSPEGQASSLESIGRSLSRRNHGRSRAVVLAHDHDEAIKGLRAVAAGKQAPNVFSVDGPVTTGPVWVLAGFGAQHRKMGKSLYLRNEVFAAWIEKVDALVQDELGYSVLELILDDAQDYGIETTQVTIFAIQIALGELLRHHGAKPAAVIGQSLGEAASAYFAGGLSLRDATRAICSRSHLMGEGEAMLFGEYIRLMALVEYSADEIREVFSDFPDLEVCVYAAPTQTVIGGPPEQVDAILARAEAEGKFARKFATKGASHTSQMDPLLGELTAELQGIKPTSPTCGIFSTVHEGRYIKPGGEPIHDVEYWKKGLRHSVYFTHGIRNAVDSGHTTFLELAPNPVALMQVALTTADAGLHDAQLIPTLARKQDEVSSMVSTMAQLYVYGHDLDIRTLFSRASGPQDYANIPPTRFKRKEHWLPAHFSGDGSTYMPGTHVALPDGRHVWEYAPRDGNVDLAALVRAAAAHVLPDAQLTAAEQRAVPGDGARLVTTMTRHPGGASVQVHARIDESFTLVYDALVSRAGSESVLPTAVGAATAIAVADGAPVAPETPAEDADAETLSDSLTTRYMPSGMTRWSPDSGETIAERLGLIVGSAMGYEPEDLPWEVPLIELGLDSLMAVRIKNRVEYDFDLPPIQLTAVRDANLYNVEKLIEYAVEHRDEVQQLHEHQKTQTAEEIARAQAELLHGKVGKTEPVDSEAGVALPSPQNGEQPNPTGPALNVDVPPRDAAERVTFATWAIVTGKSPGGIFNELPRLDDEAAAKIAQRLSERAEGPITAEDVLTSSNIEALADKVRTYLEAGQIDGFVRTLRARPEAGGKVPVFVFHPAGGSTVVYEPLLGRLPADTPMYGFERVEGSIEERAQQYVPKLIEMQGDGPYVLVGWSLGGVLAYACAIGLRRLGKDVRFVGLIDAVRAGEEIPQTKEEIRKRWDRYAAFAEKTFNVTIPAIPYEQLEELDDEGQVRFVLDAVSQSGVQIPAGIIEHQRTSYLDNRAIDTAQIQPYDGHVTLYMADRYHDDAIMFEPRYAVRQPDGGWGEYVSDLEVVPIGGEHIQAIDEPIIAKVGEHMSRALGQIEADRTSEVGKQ
UniProt Q8IDJ8, 1-583: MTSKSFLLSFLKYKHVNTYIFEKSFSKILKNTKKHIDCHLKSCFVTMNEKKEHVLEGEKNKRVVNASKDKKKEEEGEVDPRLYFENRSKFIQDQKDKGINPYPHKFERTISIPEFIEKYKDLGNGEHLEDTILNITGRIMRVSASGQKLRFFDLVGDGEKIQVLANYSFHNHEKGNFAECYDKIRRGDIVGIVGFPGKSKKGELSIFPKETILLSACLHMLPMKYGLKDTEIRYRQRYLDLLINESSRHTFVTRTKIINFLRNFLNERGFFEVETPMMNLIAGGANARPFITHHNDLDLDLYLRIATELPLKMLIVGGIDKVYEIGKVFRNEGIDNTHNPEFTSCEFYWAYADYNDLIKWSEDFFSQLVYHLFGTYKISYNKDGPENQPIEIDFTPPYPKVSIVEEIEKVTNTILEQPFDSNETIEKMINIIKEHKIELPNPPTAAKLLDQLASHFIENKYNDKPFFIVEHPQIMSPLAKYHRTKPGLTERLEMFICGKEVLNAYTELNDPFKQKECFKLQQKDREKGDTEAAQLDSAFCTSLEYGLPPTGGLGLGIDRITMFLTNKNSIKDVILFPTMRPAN

A: 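Enzyme assay of histidyl-tRNA synthetase; the read-out is not stated. Target: Histidine-tRNA ligase, Trypanosoma cruzi CL Brener (UniProt Q4DA54). Tested at 30 µM. The record gives no direction; compounds that gave an IC50 in retests scored well above the rest, so higher reads as stronger inhibition. Size under these conditions: about 69,000 compounds, about 31 of them at 50% or above in at least one test.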
B: 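Enzyme assay of tryptophanyl-tRNA synthetase; the read-out is not stated. Target: Tryptophan-tRNA ligase, Mycobacterium tuberculosis (UniProt P9WFT3). Concentration: 10 µM. Higher most likely means stronger inhibition; the record gives no direction and few retests gave an IC50. About 65,000 compounds were tested under these conditions; 0.098% (about 64) showed 50% or more at least once.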
C: 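Enzyme assay of the thioesterase domain of polyketide synthase 13; the read-out is not stated. Target: Polyketide synthase Pks13, Mycobacterium tuberculosis (UniProt I6X8D2). Tested at 30 µM. Higher reads as stronger inhibition (inferred from which compounds were picked for retests). Size under these conditions: about 67,000 compounds, about 300 of them at 50% or above in at least one test.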
D: 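Lysine-tRNA ligase, Plasmodium falciparum 3D7 (UniProt Q8IDJ8). Enzyme assay of the cytosolic lysyl-tRNA synthetase in 384-well plates, read by luminescence. Concentration: 30 µM. Direction is inferred from only a few compounds that gave an IC50; most scored high, so higher reads as stronger inhibition. About 69,000 compounds were tested under these conditions; 0.071% (about 49) showed 50% or more at least once.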
E: 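Assay of Toxoplasma gondii numbers, read through their beta-galactosidase reporter with a colour substrate. Compounds at 10 µM. The record gives no direction; the compounds picked for IC50 retests had high values, so higher reads as fewer parasites. Size under these conditions: about 67,000 compounds, about 260 of them at 50% or above in at least one test.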

The filed quantity is “Percent Effect” (%).
How 0% and 100% were set is not recorded. Most values in the screen are low, and negative values occur.
The compounds are a random part of those screened.
A dash means the value is not listed here; it may have been measured.

{"compound": "Cc1cnn(CCC(=O)N2CCC3(CCC(=O)N(CC4CC4)C3)CC2)c1", "A": 12.12, "B": 3.613, "C": 2.432, "D": 3.309, "E": 3.993}
{"compound": "Cn1ncc2c(=O)[nH]c(CN(Cc3ccco3)C3CC3)nc21", "A": 4.598, "B": -3.311, "C": 0.8249, "D": -0.6399, "E": 0.3774}
{"compound": "Cc1nc(C)n(CC2CCCN2CC(=O)NCCc2cccs2)n1", "stereo": "configuration not stated", "A": 3.659, "B": -2.311, "C": 12.4, "D": 10.65, "E": -25.37}
{"compound": "CN(C(=O)c1ccc(Cl)cn1)c1ccccc1S(C)(=O)=O", "A": 3.191, "B": -1.911, "D": 0.2111, "E": 2.3}
{"compound": "COCCN1C[C@H]2CC[C@@H]1CN(CC(=O)Nc1ccn(C)n1)C2", "A": 10.34, "B": -2.058, "C": -11.61, "D": 4.606}
{"compound": "CN(Cc1ccsc1)C(=O)c1nc(N2CCCCC2)ncc1Cl", "A": 12.73, "B": 6.028, "C": 12.03, "D": 2.429, "E": -20.06}
{"compound": "Cc1ccc2c(c1)C1(CCNCC1)CC2NC(C)C.Cl.Cl", "stereo": "configuration not stated", "E": 11.72}
{"compound": "Cc1cn2nc(Sc3nnnn3C)sc2n1", "A": 7.328, "B": -5.197, "C": -11.92, "D": 2.005, "E": 23.76}
{"compound": "COc1cc(CNC(C)Cn2ccnc2)cc2c1OCO2.Cl", "stereo": "configuration not stated", "E": 10.91}
{"compound": "O=C(O)C(F)(F)F.O=C(O)C(F)(F)F.[H][C@@]12OCCN(C3CCCC3)[C@@]1([H])CC[C@@H]2Oc1cccnc1", "E": 3.698}
{"compound": "COc1ccc2c(C)c(C(=O)NCCCc3csc(N)n3)oc2c1", "A": 7.937, "B": 2.279, "C": 4.337, "D": -2.708, "E": 7.344}
{"compound": "CCN1CCCC(O)(CNCc2ccncc2)C1", "stereo": "configuration not stated", "A": 0.5291, "B": 9.019, "C": -17.22, "D": -1.79, "E": 7.814}
{"compound": "Cn1cc(-c2cnc(N3CCOCC3)nc2)cc1C(=O)NCCC#N.O=C(O)C(F)(F)F", "E": -26.7}
{"compound": "O=C(O)C(F)(F)F.[H][C@@]12C[C@@H](c3nnc(C)[nH]3)O[C@]1([H])CN(C(=O)c1c(C)noc1C)C2", "E": -1.456}
{"compound": "Cc1noc(C(C)C)c1C(=O)NCCCN1CCNCC1.Cl", "E": 3.176}
{"compound": "[H][C@@]12CCN(Cc3cnn(C)c3)C[C@@]1([H])[C@H](C(=O)N1CCCCO1)CCO2", "E": -0.2391}
{"compound": "O=C1NCCN(C(=O)CCN2CCCO2)C1c1cccc(F)c1", "stereo": "configuration not stated", "A": 1.235, "B": 3.372, "C": -3.881, "D": 2.725, "E": -2.483}

Some entries from above, unchanged:

Compound,A,B,C,D,E
O=C(O)C(F)(F)F.[H][C@@]12C[C@@H](c3nnc(C)[nH]3)O[C@]1([H])CN(C(=O)c1c(C)noc1C)C2,-,-,-,-,-1.456
Cc1nc(C)n(CC2CCCN2CC(=O)NCCc2cccs2)n1 (configuration not stated),3.659,-2.311,12.4,10.65,-25.37

Measurements from “University of Dundee, Small-Polar-MMV Screening Library” (2021), ChEMBL document CHEMBL3988442.